Test results reported in paper PMC13595970.
No constants are given. Whether binding was seen depends on the method and setting. Binding seen in cells or lysates may run through a third protein. Here binding means that the protein was enriched with, or labelled near, the bait; the list need not be complete. A no says only that the protein was not detected with the bait.

The chains behind the UniProt entries cited, without tags or fusion partners. Residues count along the entry.
UniProt Q01299, residues 2512-3414: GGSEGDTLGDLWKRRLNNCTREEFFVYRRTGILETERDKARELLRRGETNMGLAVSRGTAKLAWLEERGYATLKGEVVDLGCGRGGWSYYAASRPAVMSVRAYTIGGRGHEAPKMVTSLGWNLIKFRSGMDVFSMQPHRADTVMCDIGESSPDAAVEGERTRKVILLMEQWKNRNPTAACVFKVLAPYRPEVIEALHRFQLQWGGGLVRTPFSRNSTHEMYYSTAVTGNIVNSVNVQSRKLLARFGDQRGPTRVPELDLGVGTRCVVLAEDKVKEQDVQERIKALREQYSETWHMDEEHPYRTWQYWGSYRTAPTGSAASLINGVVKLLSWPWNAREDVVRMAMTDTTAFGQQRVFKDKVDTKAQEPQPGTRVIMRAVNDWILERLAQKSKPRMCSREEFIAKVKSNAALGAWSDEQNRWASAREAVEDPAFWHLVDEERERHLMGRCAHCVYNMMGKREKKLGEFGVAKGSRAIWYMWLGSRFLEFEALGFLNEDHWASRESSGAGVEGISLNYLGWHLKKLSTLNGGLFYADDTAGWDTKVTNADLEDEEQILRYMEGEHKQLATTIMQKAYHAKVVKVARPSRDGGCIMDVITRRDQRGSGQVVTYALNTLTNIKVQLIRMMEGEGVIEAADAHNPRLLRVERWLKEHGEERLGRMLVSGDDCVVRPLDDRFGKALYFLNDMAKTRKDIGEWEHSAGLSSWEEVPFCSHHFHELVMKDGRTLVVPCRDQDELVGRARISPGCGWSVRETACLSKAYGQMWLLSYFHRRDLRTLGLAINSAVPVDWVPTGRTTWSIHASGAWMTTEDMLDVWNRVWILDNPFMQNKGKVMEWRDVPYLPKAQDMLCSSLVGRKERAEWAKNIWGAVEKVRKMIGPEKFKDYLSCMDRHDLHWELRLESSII
UniProt Q04538, residues 2513-3415: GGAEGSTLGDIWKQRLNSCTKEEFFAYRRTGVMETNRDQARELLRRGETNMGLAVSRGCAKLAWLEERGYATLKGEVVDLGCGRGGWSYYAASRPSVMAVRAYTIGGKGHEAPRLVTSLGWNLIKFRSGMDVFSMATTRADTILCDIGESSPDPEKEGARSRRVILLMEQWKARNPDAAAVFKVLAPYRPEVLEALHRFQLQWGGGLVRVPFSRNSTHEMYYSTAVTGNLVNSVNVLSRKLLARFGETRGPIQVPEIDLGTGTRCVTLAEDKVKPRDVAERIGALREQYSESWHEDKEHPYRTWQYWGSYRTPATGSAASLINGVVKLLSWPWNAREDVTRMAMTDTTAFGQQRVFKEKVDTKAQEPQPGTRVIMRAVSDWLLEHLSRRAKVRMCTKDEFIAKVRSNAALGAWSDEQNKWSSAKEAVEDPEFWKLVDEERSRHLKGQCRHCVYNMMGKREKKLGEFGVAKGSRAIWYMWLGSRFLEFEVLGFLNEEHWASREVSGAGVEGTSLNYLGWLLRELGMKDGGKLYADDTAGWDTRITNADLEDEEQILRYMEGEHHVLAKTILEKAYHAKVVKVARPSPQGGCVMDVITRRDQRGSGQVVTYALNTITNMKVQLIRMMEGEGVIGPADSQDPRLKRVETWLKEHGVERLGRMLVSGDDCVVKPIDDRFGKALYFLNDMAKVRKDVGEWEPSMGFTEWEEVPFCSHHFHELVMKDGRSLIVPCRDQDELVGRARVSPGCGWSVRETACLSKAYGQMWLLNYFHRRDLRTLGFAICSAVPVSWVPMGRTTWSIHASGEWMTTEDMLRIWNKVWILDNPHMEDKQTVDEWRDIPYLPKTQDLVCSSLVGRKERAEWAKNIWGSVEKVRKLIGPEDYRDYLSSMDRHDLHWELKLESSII
UniProt P57678: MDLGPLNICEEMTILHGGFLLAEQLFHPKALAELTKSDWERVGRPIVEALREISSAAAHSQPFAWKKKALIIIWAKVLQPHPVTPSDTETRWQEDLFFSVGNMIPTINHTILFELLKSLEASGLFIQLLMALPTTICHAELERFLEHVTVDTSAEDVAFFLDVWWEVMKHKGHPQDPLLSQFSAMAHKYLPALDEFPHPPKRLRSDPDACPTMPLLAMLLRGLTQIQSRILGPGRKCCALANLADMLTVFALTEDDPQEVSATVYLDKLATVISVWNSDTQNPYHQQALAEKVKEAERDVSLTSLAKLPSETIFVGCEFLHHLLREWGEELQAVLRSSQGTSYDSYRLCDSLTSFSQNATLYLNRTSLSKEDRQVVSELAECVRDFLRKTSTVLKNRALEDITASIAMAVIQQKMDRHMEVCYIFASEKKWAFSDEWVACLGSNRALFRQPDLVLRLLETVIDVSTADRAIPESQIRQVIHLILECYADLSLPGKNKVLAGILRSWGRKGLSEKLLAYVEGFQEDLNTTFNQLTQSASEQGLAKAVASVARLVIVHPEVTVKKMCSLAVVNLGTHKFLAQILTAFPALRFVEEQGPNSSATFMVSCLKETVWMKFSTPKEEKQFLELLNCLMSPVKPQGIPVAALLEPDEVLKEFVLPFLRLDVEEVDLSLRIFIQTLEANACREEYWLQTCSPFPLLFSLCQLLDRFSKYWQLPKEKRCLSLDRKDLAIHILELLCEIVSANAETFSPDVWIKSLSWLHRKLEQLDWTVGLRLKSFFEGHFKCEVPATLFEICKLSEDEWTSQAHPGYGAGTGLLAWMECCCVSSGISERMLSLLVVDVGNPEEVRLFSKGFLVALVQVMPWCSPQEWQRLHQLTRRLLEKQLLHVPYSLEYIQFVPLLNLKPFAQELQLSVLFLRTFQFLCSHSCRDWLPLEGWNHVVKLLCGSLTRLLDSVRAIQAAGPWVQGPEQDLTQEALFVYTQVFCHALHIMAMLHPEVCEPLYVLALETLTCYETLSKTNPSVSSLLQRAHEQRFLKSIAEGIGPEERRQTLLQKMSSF
UniProt O95071: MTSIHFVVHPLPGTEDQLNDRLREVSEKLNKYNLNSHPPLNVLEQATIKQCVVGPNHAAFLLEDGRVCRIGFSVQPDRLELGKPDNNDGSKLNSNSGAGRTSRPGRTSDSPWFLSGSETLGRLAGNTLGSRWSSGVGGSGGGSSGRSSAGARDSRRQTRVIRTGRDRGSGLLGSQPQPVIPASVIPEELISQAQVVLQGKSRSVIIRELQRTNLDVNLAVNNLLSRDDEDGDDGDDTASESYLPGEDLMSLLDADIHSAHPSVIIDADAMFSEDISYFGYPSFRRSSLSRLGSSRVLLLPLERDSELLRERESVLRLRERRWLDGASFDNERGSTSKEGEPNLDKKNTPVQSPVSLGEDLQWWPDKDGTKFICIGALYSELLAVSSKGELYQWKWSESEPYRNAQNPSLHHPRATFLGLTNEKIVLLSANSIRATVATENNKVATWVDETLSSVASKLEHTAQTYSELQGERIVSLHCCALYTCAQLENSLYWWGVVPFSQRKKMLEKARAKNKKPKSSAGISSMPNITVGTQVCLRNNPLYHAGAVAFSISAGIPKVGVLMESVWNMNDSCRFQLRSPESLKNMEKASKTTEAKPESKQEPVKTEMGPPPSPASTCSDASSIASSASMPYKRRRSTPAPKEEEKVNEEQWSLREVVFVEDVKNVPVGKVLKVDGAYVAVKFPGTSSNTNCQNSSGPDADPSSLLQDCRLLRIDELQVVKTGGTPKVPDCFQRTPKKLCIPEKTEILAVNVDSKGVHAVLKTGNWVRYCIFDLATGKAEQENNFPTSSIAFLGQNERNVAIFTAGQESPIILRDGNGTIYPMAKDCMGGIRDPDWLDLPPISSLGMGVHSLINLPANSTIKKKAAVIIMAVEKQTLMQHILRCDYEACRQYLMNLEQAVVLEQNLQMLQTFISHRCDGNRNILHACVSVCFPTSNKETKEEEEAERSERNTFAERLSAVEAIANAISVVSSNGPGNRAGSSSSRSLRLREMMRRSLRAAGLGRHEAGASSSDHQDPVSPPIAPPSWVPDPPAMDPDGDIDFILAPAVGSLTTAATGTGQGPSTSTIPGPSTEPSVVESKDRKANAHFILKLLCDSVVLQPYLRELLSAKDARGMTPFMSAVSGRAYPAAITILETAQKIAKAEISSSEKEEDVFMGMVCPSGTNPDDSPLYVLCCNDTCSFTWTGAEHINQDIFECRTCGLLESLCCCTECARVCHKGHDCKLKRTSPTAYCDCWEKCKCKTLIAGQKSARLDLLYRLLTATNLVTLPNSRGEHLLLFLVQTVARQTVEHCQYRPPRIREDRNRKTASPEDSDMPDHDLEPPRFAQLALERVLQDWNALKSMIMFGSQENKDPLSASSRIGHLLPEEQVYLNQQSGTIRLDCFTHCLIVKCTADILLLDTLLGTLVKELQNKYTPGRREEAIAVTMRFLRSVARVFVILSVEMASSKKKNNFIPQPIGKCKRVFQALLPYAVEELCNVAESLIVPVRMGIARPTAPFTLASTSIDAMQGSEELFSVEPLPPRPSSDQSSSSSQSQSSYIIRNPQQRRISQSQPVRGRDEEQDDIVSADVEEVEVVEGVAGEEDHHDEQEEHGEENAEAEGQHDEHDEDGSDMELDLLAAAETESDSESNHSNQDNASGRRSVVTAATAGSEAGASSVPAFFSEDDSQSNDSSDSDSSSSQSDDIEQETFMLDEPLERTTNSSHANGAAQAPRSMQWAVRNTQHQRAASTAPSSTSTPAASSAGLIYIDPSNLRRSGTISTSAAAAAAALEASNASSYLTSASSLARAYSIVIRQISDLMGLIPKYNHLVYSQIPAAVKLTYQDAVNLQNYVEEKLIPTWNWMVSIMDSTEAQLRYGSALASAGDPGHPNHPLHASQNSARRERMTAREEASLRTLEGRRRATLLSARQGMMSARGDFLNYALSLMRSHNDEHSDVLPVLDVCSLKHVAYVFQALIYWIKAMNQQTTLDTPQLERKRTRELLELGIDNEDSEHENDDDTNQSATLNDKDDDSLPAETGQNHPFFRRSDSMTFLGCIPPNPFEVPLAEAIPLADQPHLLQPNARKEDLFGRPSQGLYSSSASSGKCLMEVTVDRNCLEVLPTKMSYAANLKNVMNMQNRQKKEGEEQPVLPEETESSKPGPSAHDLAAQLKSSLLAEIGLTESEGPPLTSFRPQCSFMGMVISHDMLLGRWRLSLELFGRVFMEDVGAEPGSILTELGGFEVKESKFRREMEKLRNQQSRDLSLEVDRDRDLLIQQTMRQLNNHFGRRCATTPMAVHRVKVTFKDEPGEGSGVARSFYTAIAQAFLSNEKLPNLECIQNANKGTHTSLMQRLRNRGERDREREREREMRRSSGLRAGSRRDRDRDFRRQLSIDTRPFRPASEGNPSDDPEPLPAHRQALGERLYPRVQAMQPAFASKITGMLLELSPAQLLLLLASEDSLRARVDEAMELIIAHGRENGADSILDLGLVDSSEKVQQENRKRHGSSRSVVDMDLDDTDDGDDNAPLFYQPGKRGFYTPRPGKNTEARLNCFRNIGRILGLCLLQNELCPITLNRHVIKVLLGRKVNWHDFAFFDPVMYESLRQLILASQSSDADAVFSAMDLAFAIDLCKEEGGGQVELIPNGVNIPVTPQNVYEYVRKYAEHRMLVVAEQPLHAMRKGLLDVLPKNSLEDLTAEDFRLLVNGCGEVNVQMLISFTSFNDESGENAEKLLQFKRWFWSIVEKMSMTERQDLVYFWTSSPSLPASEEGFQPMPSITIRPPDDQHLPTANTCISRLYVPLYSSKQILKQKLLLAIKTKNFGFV
UniProt Q14974: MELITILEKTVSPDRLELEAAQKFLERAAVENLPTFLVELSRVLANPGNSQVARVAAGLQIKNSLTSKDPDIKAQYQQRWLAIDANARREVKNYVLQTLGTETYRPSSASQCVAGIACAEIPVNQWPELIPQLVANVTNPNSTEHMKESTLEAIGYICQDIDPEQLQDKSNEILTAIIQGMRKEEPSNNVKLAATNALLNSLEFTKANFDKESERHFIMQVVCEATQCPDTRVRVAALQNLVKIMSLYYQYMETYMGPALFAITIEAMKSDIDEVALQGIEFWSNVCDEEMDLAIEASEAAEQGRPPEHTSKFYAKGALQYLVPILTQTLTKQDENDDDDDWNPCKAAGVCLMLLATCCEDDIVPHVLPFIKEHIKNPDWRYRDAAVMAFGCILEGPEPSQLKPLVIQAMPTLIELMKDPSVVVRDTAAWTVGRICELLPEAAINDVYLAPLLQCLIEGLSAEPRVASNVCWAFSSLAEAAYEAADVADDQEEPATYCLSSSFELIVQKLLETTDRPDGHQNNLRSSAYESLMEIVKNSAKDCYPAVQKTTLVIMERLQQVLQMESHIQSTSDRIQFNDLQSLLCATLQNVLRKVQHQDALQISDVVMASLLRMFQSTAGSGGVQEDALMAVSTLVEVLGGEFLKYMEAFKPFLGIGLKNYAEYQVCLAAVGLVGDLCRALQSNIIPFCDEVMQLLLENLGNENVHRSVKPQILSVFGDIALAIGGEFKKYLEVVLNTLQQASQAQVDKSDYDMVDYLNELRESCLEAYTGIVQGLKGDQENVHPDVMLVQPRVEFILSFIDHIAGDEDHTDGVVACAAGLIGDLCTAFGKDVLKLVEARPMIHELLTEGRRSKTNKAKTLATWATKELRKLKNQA

How the values were obtained:
[1] = target: NS5 protein of tick-borne encephalitis virus (TBEV), Hypr strain, from infected cells (tick-borne encephalitis virus (Hypr strain)) (UniProt Q01299); test: affinity purification with mass spectrometry
[2] = target: Strep-tagged NS5 protein of Powassan virus (POWV), strain LB (Powassan virus (strain LB)) (UniProt Q04538); test: affinity purification with mass spectrometry

Row | Molecule | binding [1] | binding [2]
1 | ATRX (from UniProt P46100 1-2492) | binds | binds
2 | CRM1 (also called Exportin-1 [XPO1]) (from UniProt O14980 1-1071) | binds | 
3 | GEMIN4 (from UniProt P57678 1-1058) | binds | 
4 | HAX1 (from UniProt O00165 1-279) | binds | no binding
5 | PHAX (from UniProt Q9H814 1-394) | binds | no binding
6 | SMN1 (from UniProt Q16637 1-294) | binds | 
7 | TYK2 (from UniProt P29597 1-1187) | binds | binds
8 | UBR5 (from UniProt O95071 1-2799) | binds | 
9 | β-importin1 (from UniProt Q14974 1-876) | no binding | 
10 | ZNF687 (protein, UniProt Q8N1G0 1-1237) MGDMKTPDFDDLLAAFDIPDIDANEAIHSGPEENEGPGGPGKPEPGVGSESEDTAAASAGDGPGVPAQASDHGLPPPDISVVSVIVKNTVCPEQSEALAGGSAGDGAQAAGVTKEGPVGPHRMQNGFGSPEPSLPGTPHSPAPPSGGTWKEKGMEGKTPLDLFAHFGPEPGDHSDPLPPSAPSPTREGALTPPPFPSSFELAQENGPGMQPPVSSPPLGALKQESCSPHHPQVLAQQGSGSSPKATDIPASASPPPVAGVPFFKQSPGHQSPLASPKVPVCQPLKEEDDDEGPVDKSSPGSPQSPSSGAEAADEDSNDSPASSSSRPLKVRIKTIKTSCGNITRTVTQVPSDPDPPAPLAEGAFLAEASLLKLSPATPTSEGPKVVSVQLGDGTRLKGTVLPVATIQNASTAMLMAASVARKAVVLPGGTATSPKMIAKNVLGLVPQALPKADGRAGLGTGGQKVNGASVVMVQPSKTATGPSTGGGTVISRTQSSLVEAFNKILNSKNLLPAYRPNLSPPAEAGLALPPTGYRCLECGDAFSLEKSLARHYDRRSMRIEVTCNHCARRLVFFNKCSLLLHAREHKDKGLVMQCSHLVMRPVALDQMVGQPDITPLLPVAVPPVSGPLALPALGKGEGAITSSAITTVAAEAPVLPLSTEPPAAPATSAYTCFRCLECKEQCRDKAGMAAHFQQLGPPAPGATSNVCPTCPMMLPNRCSFSAHQRMHKNRPPHVCPECGGNFLQANFQTHLREACLHVSRRVGYRCPSCSVVFGGVNSIKSHIQTSHCEVFHKCPICPMAFKSGPSAHAHLYSQHPSFQTQQAKLIYKCAMCDTVFTHKPLLSSHFDQHLLPQRVSVFKCPSCPLLFAQKRTMLEHLKNTHQSGRLEETAGKGAGGALLTPKTEPEELAVSQGGAAPATEESSSSSEEEEVPSSPEPPRPAKRPRRELGSKGLKGGGGGPGGWTCGLCHSWFPERDEYVAHMKKEHGKSVKKFPCRLCERSFCSAPSLRRHVRVNHEGIKRVYPCRYCTEGKRTFSSRLILEKHVQVRHGLQLGAQSPGRGTTLARGSSARAQGPGRKRRQSSDSCSEEPDSTTPPAKSPRGGPGSGGHGPLRYRSSSSTEQSLMMGLRVEDGAQQCLDCGLCFASPGSLSRHRFISHKKRRGVGKASALGLGDGEEEAPPSRSDPDGGDSPLPASGGPLTCKVCGKSCDSPLNLKTHFRTHGMAFIRARQGAVGDN | binds | 
11 | NKTR (protein, UniProt P30414 1-1462) MGAQDRPQCHFDIEINREPVGRIMFQLFSDICPKTCKNFLCLCSGEKGLGKTTGKKLCYKGSTFHRVVKNFMIQGGDFSEGNGKGGESIYGGYFKDENFILKHDRAFLLSMANRGKHTNGSQFFITTKPAPHLDGVHVVFGLVISGFEVIEQIENLKTDAASRPYADVRVIDCGVLATKSIKDVFEKKRKKPTHSEGSDSSSNSSSSSESSSESELEHERSRRRKHKRRPKVKRSKKRRKEASSSEEPRNKHAMNPKGHSERSDTNEKRSVDSSAKREKPVVRPEEIPPVPENRFLLRRDMPVVTAEPEPKIPDVAPIVSDQKPSVSKSGRKIKGRGTIRYHTPPRSRSCSESDDDDSSETPPHWKEEMQRLRAYRPPSGEKWSKGDKLSDPCSSRWDERSLSQRSRSWSYNGYYSDLSTARHSGHHKKRRKEKKVKHKKKGKKQKHCRRHKQTKKRRILIPSDIESSKSSTRRMKSSCDRERSSRSSSLSSHHSSKRDWSKSDKDVQSSLTHSSRDSYRSKSHSQSYSRGSSRSRTASKSSSHSRSRSKSRSSSKSGHRKRASKSPRKTASQLSENKPVKTEPLRATMAQNENVVVQPVVAENIPVIPLSDSPPPSRWKPGQKPWKPSYERIQEMKAKTTHLLPIQSTYSLANIKETGSSSSYHKREKNSESDQSTYSKYSDRSSESSPRSRSRSSRSRSYSRSYTRSRSLASSHSRSRSPSSRSHSRNKYSDHSQCSRSSSYTSISSDDGRRAKRRLRSSGKKNSVSHKKHSSSSEKTLHSKYVKGRDRSSCVRKYSESRSSLDYSSDSEQSSVQATQSAQEKEKQGQMERTHNKQEKNRGEEKSKSERECPHSKKRTLKENLSDHLRNGSKPKRKNYAGSKWDSESNSERDVTKNSKNDSHPSSDKEEGEATSDSESEVSEIHIKVKPTTKSSTNTSLPDDNGAWKSSKQRTSTSDSEGSCSNSENNRGKPQKHKHGSKENLKREHTKKVKEKLKGKKDKKHKAPKRKQAFHWQPPLEFGEEEEEEIDDKQVTQESKEKKVSENNETIKDNILKTEKSSEEDLSGKHDTVTVSSDLDQFTKDDSKLSISPTALNTEENVACLQNIQHVEESVPNGVEDVLQTDDNMEICTPDRSSPAKVEETSPLGNARLDTPDINIVLKQDMATEHPQAEVVKQESSMSESKVLGEVGKQDSSSASLASAGESTGKKEVAEKSQINLIDKKWKPLQGVGNLAAPNAATSSAVEVKVLTTVPEMKPQGLRIEIKSKNKVRPGSLFDEVRKTARLNRRPRNQESSSDEQTPSRDDDSQSRSPSRSRSKSETKSRHRTRSVSYSHSRSRSRSSTSSYRSRSYSRSRSRGWYSRGRTRSRSSSYRSYKSHRTSSRSRSRSSSYDPHSRSRSYTYDSYYSRSRSRSRSQRSDSYHRGRSYNRRSRSCRSYGSDSESDRSYSHHRSPSESSRYS | binds | 
12 | SMARCAD1 (protein, UniProt Q9H4L7 1-1026) MNLFNLDRFRFEKRNKIEEAPEATPQPSQPGPSSPISLSAEEENAEGEVSRANTPDSDITEKTEDSSVPETPDNERKASISYFKNQRGIQYIDLSSDSEDVVSPNCSNTVQEKTFNKDTVIIVSEPSEDEESQGLPTMARRNDDISELEDLSELEDLKDAKLQTLKELFPQRSDNDLLKLIESTSTMDGAIAAALLMFGDAGGGPRKRKLSSSSEPYEEDEFNDDQSIKKTRLDHGEESNESAESSSNWEKQESIVLKLQKEFPNFDKQELREVLKEHEWMYTEALESLKVFAEDQDMQYVSQSEVPNGKEVSSRSQNYPKNATKTKLKQKFSMKAQNGFNKKRKKNVFNPKRVVEDSEYDSGSDVGSSLDEDYSSGEEVMEDGYKGKILHFLQDASIGELTLIPQCSQKKAQKITELRPFNSWEALFTKMSKTNGLSEDLIWHCKTLIQERDVVIRLMNKCEDISNKLTKQVTMLTGNGGGWNIEQPSILNQSLSLKPYQKVGLNWLALVHKHGLNGILADEMGLGKTIQAIAFLAYLYQEGNNGPHLIVVPASTIDNWLREVNLWCPTLKVLCYYGSQEERKQIRFNIHSRYEDYNVIVTTYNCAISSSDDRSLFRRLKLNYAIFDEGHMLKNMGSIRYQHLMTINANNRLLLTGTPVQNNLLELMSLLNFVMPHMFSSSTSEIRRMFSSKTKSADEQSIYEKERIAHAKQIIKPFILRRVKEEVLKQLPPKKDRIELCAMSEKQEQLYLGLFNRLKKSINNLEKNTEMCNVMMQLRKMANHPLLHRQYYTAEKLKEMSQLMLKEPTHCEANPDLIFEDMEVMTDFELHVLCKQYRHINNFQLDMDLILDSGKFRVLGCILSELKQKGDRVVLFSQFTMMLDILEVLLKHHQHRYLRLDGKTQISERIHLIDEFNTDMDIFVFLLSTKAGGLGINLTSANVVILHDIDCNPYNDKQAEDRCHRVGQTKEVLVIKLISQGTIEESMLKINQQKLKLEQDMTTVDEGDEGSMPADIATLLKTSMGL | binds | 
13 | SART3 (protein, UniProt Q15020 1-963) MATAAETSASEPEAESKAGPKADGEEDEVKAARTRRKVLSRAVAAATYKTMGPAWDQQEEGVSESDGDEYAMASSAESSPGEYEWEYDEEEEKNQLEIERLEEQLSINVYDYNCHVDLIRLLRLEGELTKVRMARQKMSEIFPLTEELWLEWLHDEISMAQDGLDREHVYDLFEKAVKDYICPNIWLEYGQYSVGGIGQKGGLEKVRSVFERALSSVGLHMTKGLALWEAYREFESAIVEAARLEKVHSLFRRQLAIPLYDMEATFAEYEEWSEDPIPESVIQNYNKALQQLEKYKPYEEALLQAEAPRLAEYQAYIDFEMKIGDPARIQLIFERALVENCLVPDLWIRYSQYLDRQLKVKDLVLSVHNRAIRNCPWTVALWSRYLLAMERHGVDHQVISVTFEKALNAGFIQATDYVEIWQAYLDYLRRRVDFKQDSSKELEELRAAFTRALEYLKQEVEERFNESGDPSCVIMQNWARIEARLCNNMQKARELWDSIMTRGNAKYANMWLEYYNLERAHGDTQHCRKALHRAVQCTSDYPEHVCEVLLTMERTEGSLEDWDIAVQKTETRLARVNEQRMKAAEKEAALVQQEEEKAEQRKRARAEKKALKKKKKIRGPEKRGADEDDEKEWGDDEEEQPSKRRRVENSIPAAGETQNVEVAAGPAGKCAAVDVEPPSKQKEKAASLKRDMPKVLHDSSKDSITVFVSNLPYSMQEPDTKLRPLFEACGEVVQIRPIFSNRGDFRGYCYVEFKEEKSALQALEMDRKSVEGRPMFVSPCVDKSKNPDFKVFRYSTSLEKHKLFISGLPFSCTKEELEEICKAHGTVKDLRLVTNRAGKPKGLAYVEYENESQASQAVMKMDGMTIKENIIKVAISNPPQRKVPEKPETRKAPGGPMLLPQTYGARGKGRTQLSLLPRALQRPSAAAPQAENGPAAAPAVAAPAATEAPKMSNADFAKLFLRK | binds | 
